Measurements reported in PubChem BioAssay AID504786 (Drosophila RNAi Screening Center, 2011)

- Assay: 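Knock-downs reducing HIF reporter induction by the iron chelator DFO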 (primary screen)
- System: Drosophila S2 cells with a stable HIF luciferase reporter
- Reagent: long dsRNA against Drosophila genes, about 0.2 µg dsRNA per well of a 384-well plate
- Duration: three days of knock-down, then 20 h of DFO before reading
- Conditions: desferrioxamine (DFO) at 100 µM, an iron chelator that mimics hypoxia, for 20 h
- Read-out: 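HIF reporter luminescence in cells given 100 µM DFO for 20 h, using the mouse ldh-a hypoxia-response element, scored as per-plate z-scores; higher means greater loss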
- Scale: z-score: higher = stronger loss of HIF reporter signal
The deposit covers about 21,000 reagents; shown is a random part of those with a known target gene and a result. 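Primary screen; positive scores mean lost reporter signal, so the sign may be inverted from the usual convention.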 Names joined by + are all predicted targets of the reagent. Reagent sequences are not shown.

no.	Target gene	dsRNA	z-score, replicate 1	z-score, replicate 2	z-score, replicate 3	z-score, replicate 4
1	Usp7	DRSC18909	-0.1	0		
2	Usp7	DRSC19604	-0.2	-0.4		
3	SK	DRSC17387	0	0		
4	SK	DRSC17751	-0.3	0.3		
5	SK	DRSC17887	-0.3	0		
6	SK	DRSC17888	-0.2	0.1		
7	SK	DRSC18353	-0.3	-0.5		
8	hfp	DRSC08731	1.4	3.4		
9	hfp	DRSC08732	-0.2	1		
10	CG33777	DRSC08107	-0.2	-0.2		
11	drk	DRSC07606	0.1	0.9		
12	CG31781 (retired record)	DRSC02431	-0.3	-0.3		
13	CG31781 (retired record)	DRSC02432	-0.3	-0.2		
14	Mettl2	DRSC08398	-0.3	-0.2		
15	CG6403	DRSC16033	-0.4	-0.7		
16	CG12644 (retired record)	DRSC17850	-0.1	-1.4		
17	Elp4	DRSC02999	-0.4	-0.7		
18	pan	DRSC17176	-0.3	-0.2		
19	emp	DRSC04019	0	-0.1		
20	emp	DRSC04683	-0.2	0.1		
21	Cchl	DRSC15949	-0.1	0.4		
22	CG33523	DRSC09814	-0.4	0.4		
23	CG31122	DRSC14787	-0.3	-0.6	1.4	0.1
24	CG31122	DRSC16286	-0.6	-0.6		
25	Tcs5	DRSC09774	-0.3	0.5		
26	Vps28	DRSC06168	-0.1	0.1		
27	Hsp110	DRSC11186	0.3	1.5		
28	Prp38	DRSC07060	0.9	1.6		
29	CG6271	DRSC16006	-0.3	-0.3		
30	CG5569	DRSC04514	-0.4	-0.2		
31	tzn	DRSC11755	0	0.7		
32	CG14957	DRSC08416	-0.5	-0.4		
33	CG13850	DRSC14700	-0.3	-0.6		

The list goes on, starting with the last 3 of the part before.
no.	Target gene	dsRNA	z-score, replicate 1	z-score, replicate 2	z-score, replicate 3	z-score, replicate 4
31	tzn	DRSC11755	0	0.7		
32	CG14957	DRSC08416	-0.5	-0.4		
33	CG13850	DRSC14700	-0.3	-0.6		
34	mura	DRSC16483	2.5	0.5		
35	mura	DRSC16484	4.9	4.2		
36	bsd	DRSC05953	1	2.1		
37	Bacc	DRSC00735	0.1	0.2		
38	CG10474	DRSC05993	-0.2	-0.4		
39	Ip6k	DRSC04054	0	-0.1		
40	car	DRSC20316	-0.2	0.1		
41	mRpL10	DRSC00312	1.2	0.9		
42	CG31126	DRSC14623	-0.5	-0.5		
43	Hph	DRSC12164	2.4	2.1		
44	Hph	DRSC12251	0.3	0.9		
45	Tep1	DRSC03450	-0.3	-0.4		
46	CG7881	DRSC04898	-0.2	0.4		
47	Usp16-45	DRSC18352	-0.3	-0.4		
48	CG31550	DRSC12197	-0.2	-0.1		
49	CG31550	DRSC12198	-0.3	-0.4		
50	CG13160	DRSC06284	-0.4	-0.2		
51	ppk21	DRSC14466	-0.5	-0.6		
52	retm	DRSC03252	-0.3	-0.5		
53	east	DRSC18770	-0.3	-0.3		
54	SoxN	DRSC03440	-0.3	-0.9	-0.3	2.2
55	CG3097	DRSC18275	-0.2	-0.4		
56	Chc	DRSC20229	-0.5	-0.8		
57	Or74a	DRSC11245	-0.1	0.4		
58	Mcm2	DRSC16734	0.1	0.2		
59	CG4763	DRSC04009	-0.1	-0.2		
60	CG4763	DRSC04487	-0.4	-0.4		
61	cyp33 + CG34194	DRSC05666	0.5	0.2		
62	Phlpp	DRSC02065	-0.3	-0.4		
63	CG5810	DRSC15880	-0.2	-0.4		
64	CG17562	DRSC15243	-0.2	-0.3		
65	Dnali1	DRSC16158	-0.4	-0.6		
66	ps	DRSC15149	0	-0.3		
67	ps	DRSC15151	1.5	1.5		
68	ps	DRSC15152	0.8	-0.3		
69	ps	DRSC16388	2.6	0.1		
70	CR14033	DRSC02358	-0.4	-0.4		
71	hbs	DRSC07627	-0.3	-0.5		
72	rho-6	DRSC02588	-0.4	-0.3		
73	p-cup	DRSC19513	-0.3	-0.6		
74	RPA3	DRSC19658	-0.2	0.5		
75	CG9664	DRSC00725	-0.3	0.1		
76	CG7548	DRSC10874	-0.2	0		
77	CG32483	DRSC07902	-0.2	0		
78	ben	DRSC20310	-0.5	-0.2		
79	ben	DRSC21261	-0.4	-0.7		
80	mrt	DRSC15484	0	-0.5		
81	Fer3	DRSC16133	-0.4	-0.4		
82	Kap-alpha1	DRSC11356	-0.3	0.9		
83	CG9130 + CG9133	DRSC08624	-0.3	-0.3	-0.5	-0.3
84	CG9130 + CG9133	DRSC08625	2	2.2		
